Reference: US9012216B2, “Methods of determining efficacy of cyclodextrin therapy” (Washington University, priority 2008, dated 2015)

Test: Plasma and tissue oxysterols in NPC1-/- null and wild-type mice
Format: in vivo
Settings: for Plasma level in NPC1 mice as compared to wild-type mice: ages 4-10 weeks, all time points

| Compound | Plasma level in NPC1 mice as compared to wild-type mice | Level in cerebellar tissue of NPC1 mice (as early as postnatal day 8) |
| --- | --- | --- |
| CC(C)CCC[C@@H](C)[C@H]1CC[C@H]2[C@@H]3C[C@@H](O)[C@@]4(O)C[C@@H](O)CC[C@]4(C)[C@H]3CC[C@]12C [triol, cholestane-3β,5α,6β-triol] | significant elevations | elevated |
| C[C@H](CCCC(C)(C)O)[C@H]1CC[C@H]2[C@@H]3CC=C4C[C@@H](O)CC[C@]4(C)[C@H]3CC[C@]12C [25-HC, 25-hydroxycholesterol] | significant elevations | – |
